This note sets out measurements from article doi:10.1101/2021.05.03.442108.

Results are given in words; binding and its absence hold for the method and conditions named. In cells and extracts the contact can be indirect. Some results given as binding are weak or reduced against the parent protein; the word gives no strength.

This assay has as its target IAA1 (Arabidopsis thaliana) (UniProt P49677). The experiment in a line: split reporter.

B1: IAA1 (protein, UniProt P49677 1-168)
chain: MEVTNGLNLKDTELRLGLPGAQEEQQLELSCVRSNNKRKNNDSTEESAPPPAKTQIVGWPPVRSNRKNNNNKNVSYVKVSMDGAPYLRKIDLKMYKNYPELLKALENMFKFTVGEYSEREGYKGSGFVPTYEDKDGDWMLVGDVPWDMFSSSCQKLRIMKGSEAPTAL
For the molecule B1, the binding result is “binds”.
